Source: US20230047413A1
Numbering of substitutions follows the chain as printed. No constants are given. Whether binding was seen depends on the method and setting. Some results given as binding are weak or reduced against the parent protein; the word gives no strength.

Sequences of proteins named here, by UniProt entry; tags and fusion partners are left off. A change or cut given only in a name is not applied to a line headed by its entry. A line that says so, or that is headed by a name, gives the form on record, which may keep a tag or linker.
PHF-tau (paired helical filament tau isolated from Alzheimer's disease brain) (P10636, form named): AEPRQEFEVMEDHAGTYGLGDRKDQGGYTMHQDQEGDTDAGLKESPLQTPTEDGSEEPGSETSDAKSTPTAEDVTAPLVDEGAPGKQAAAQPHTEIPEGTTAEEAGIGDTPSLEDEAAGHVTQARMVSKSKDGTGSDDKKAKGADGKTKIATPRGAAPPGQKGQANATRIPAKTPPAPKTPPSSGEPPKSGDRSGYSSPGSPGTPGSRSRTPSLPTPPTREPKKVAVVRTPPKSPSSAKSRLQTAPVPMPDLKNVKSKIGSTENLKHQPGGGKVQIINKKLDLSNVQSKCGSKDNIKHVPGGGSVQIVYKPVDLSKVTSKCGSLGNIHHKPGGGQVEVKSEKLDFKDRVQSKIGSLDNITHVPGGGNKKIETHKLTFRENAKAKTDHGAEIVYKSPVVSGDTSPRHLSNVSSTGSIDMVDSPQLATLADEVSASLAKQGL

B1: B331 (Fab of B333) (Fab, V domains shown)
VH: QVQLVESGGGVVQPGRSLRLSCAASGFTFSSYAMSWVRQAPGKGLEWVASISKGGNTYYADSVKGRFTISRDNSKNTLYLQMNSLRAEDTAVYYCARGWGDYGWFAYWGQVTLVTVSS
VL: DIQMTQSPSSLSASVGDRVTITCKASQDINRWLNWFQQKPGKAPKSLIYRANRLLDGVPSRFSGSGSGTDFTLTISSLQPEDFATYYCLQYDEFPLTFGQGTKLEIK
B2: B330 (Fab of B711) (Fab, V domains shown)
VH: B1 VH with S30T, S52T, D101I
VL: B1 VL
B3: B332 (Fab of B809) (Fab, V domains shown)
VH: B1 VH with S30T, S52T, D101I
VL: B1 VL with W32Y
B4: B711 (antibody, human IgG1, kappa, V domains shown)
VH: B1 VH with S30T, S52T, D101I
VL: DIQMTQSPSSLSASVGDRVTITCKASQDINRWLNWFQQKPGKAPKSLIYRANRLLDGVPSRFSGSGSGTDFTLTISSLQPEDFATYYCLQYDEFPLTFGQGTKLEIKR
B5: B809 (antibody, human IgG1, kappa, V domains shown)
VH: B1 VH with S30T, S52T, D101I
VL: B4 VL with W32Y
B6: B333 (antibody, human IgG1, kappa, V domains shown)
VH: B1 VH
VL: B4 VL

Molecular target: PHF-tau (paired helical filament tau isolated from Alzheimer's disease brain) (human) (UniProt P10636)
Test: SPR (ProteOn), PHF-tau capture-coupled via HT7 on the chip, Fab injected; concentrations not labelled on the sheet

binding, binds:
B1
B2
B3

Molecular target: PHF-tau (paired helical filament tau isolated from Alzheimer's disease brain) (human) (UniProt P10636)
Test: SPR (ProteOn), PHF-tau capture-coupled via HT7 on the chip, antibody injected; concentrations not labelled on the sheet

binding, binds:
B4
B5
B6
